{"source": "PubChem BioAssay AID1259308 | NCATS | 2017", "screen": "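Knock-downs that increase output of a recombinant reporter protein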 (primary screen)", "cells": "human HEK293 embryonic kidney cells stably expressing firefly luciferase (HEK-CMV-Luc2-Hygro)", "reagents": "single siRNA against human genes, 0.8 pmol siRNA per well", "time to read-out": "72 h", "measured": "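Reporter luminescence and viable-cell signal on separate replicate plates, given as percent of non-targeting control and median/MAD z-scores, plus per-cell luciferase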", "reading the numbers": "total luciferase, z-score and total luciferase, % of control: higher = more reporter protein produced", "active means": "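An siRNA counts as active if its total luciferase robust z-score exceeds 3; genes with two or more such siRNAs out of three were retested with fresh siRNAs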", "calls": "active = raised luciferase; inactive = no rise", "note": "The whole screen tested about 59,000 reagents; this is a part drawn at random. About 1,510 of them (2.6%) were called active. 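Calls use total luciferase alone and ignore viability, so some active siRNAs may act by altering cell number.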 The numbers tell different reagents against one gene apart. Further read-outs or replicates are left out here."}
{"gene symbol": "CPED1", "reagent": 1, "total luciferase, z-score": 1.93, "total luciferase, % of control": 120, "outcome": "inactive"}
{"gene symbol": "CPED1", "reagent": 2, "total luciferase, z-score": 0.185, "total luciferase, % of control": 85.6, "outcome": "inactive"}
{"gene symbol": "CPED1", "reagent": 3, "total luciferase, z-score": 1.99, "total luciferase, % of control": 121, "outcome": "inactive"}
{"gene symbol": "CRTAM", "reagent": 1, "total luciferase, z-score": 0.821, "total luciferase, % of control": 98.2, "outcome": "inactive"}
{"gene symbol": "CRTAM", "reagent": 2, "total luciferase, z-score": 1.53, "total luciferase, % of control": 112, "outcome": "inactive"}
{"gene symbol": "CRTAM", "reagent": 3, "total luciferase, z-score": -0.416, "total luciferase, % of control": 73.6, "outcome": "inactive"}
{"gene symbol": "KRTAP5-10", "reagent": 1, "total luciferase, z-score": -0.417, "total luciferase, % of control": 73.6, "outcome": "inactive"}
{"gene symbol": "KRTAP5-10", "reagent": 2, "total luciferase, z-score": 1.42, "total luciferase, % of control": 110, "outcome": "inactive"}
{"gene symbol": "KRTAP5-10", "reagent": 3, "total luciferase, z-score": 0.411, "total luciferase, % of control": 90.1, "outcome": "inactive"}
{"gene symbol": "CNIH2", "reagent": 1, "total luciferase, z-score": 0.463, "total luciferase, % of control": 91.1, "outcome": "inactive"}
{"gene symbol": "CNIH2", "reagent": 2, "total luciferase, z-score": -0.655, "total luciferase, % of control": 68.9, "outcome": "inactive"}
{"gene symbol": "CNIH2", "reagent": 3, "total luciferase, z-score": -1.15, "total luciferase, % of control": 59, "outcome": "inactive"}
{"gene symbol": "KLHL12", "reagent": 1, "total luciferase, z-score": 0.48, "total luciferase, % of control": 91.4, "outcome": "inactive"}
{"gene symbol": "KLHL12", "reagent": 2, "total luciferase, z-score": -0.181, "total luciferase, % of control": 78.3, "outcome": "inactive"}
{"gene symbol": "KLHL12", "reagent": 3, "total luciferase, z-score": -0.952, "total luciferase, % of control": 63, "outcome": "inactive"}

Sorted by “total luciferase, z-score” (lowest first): 2 of the entries above.
{"gene symbol": "CPED1", "reagent": 2, "total luciferase, z-score": 0.185, "total luciferase, % of control": 85.6, "outcome": "inactive"}
{"gene symbol": "CPED1", "reagent": 3, "total luciferase, z-score": 1.99, "total luciferase, % of control": 121, "outcome": "inactive"}

The results go on.
{"gene symbol": "EPHB3", "reagent": 1, "total luciferase, z-score": 0.894, "total luciferase, % of control": 99.7, "outcome": "inactive"}
{"gene symbol": "EPHB3", "reagent": 2, "total luciferase, z-score": 0.287, "total luciferase, % of control": 87.6, "outcome": "inactive"}
{"gene symbol": "EPHB3", "reagent": 3, "total luciferase, z-score": 0.795, "total luciferase, % of control": 97.7, "outcome": "inactive"}
{"gene symbol": "C5orf46", "reagent": 1, "total luciferase, z-score": -0.152, "total luciferase, % of control": 78.9, "outcome": "inactive"}
{"gene symbol": "C5orf46", "reagent": 2, "total luciferase, z-score": -1.29, "total luciferase, % of control": 56.3, "outcome": "inactive"}
{"gene symbol": "C5orf46", "reagent": 3, "total luciferase, z-score": -0.983, "total luciferase, % of control": 62.3, "outcome": "inactive"}
{"gene symbol": "PTBP2", "reagent": 1, "total luciferase, z-score": -0.187, "total luciferase, % of control": 78.2, "outcome": "inactive"}
{"gene symbol": "PTBP2", "reagent": 2, "total luciferase, z-score": -0.705, "total luciferase, % of control": 67.9, "outcome": "inactive"}
{"gene symbol": "PTBP2", "reagent": 3, "total luciferase, z-score": -0.211, "total luciferase, % of control": 77.7, "outcome": "inactive"}
{"gene symbol": "HAUS5", "reagent": 1, "total luciferase, z-score": -0.149, "total luciferase, % of control": 78.9, "outcome": "inactive"}
{"gene symbol": "HAUS5", "reagent": 2, "total luciferase, z-score": -1.56, "total luciferase, % of control": 50.9, "outcome": "inactive"}
{"gene symbol": "HAUS5", "reagent": 3, "total luciferase, z-score": -0.661, "total luciferase, % of control": 68.7, "outcome": "inactive"}
{"gene symbol": "FLT3LG", "reagent": 1, "total luciferase, z-score": 0.156, "total luciferase, % of control": 85, "outcome": "inactive"}
{"gene symbol": "FLT3LG", "reagent": 2, "total luciferase, z-score": -0.127, "total luciferase, % of control": 79.4, "outcome": "inactive"}
{"gene symbol": "FLT3LG", "reagent": 3, "total luciferase, z-score": 0.298, "total luciferase, % of control": 87.8, "outcome": "inactive"}
{"gene symbol": "LINC01704", "reagent": 1, "total luciferase, z-score": 0.309, "total luciferase, % of control": 88, "outcome": "inactive"}
{"gene symbol": "LINC01704", "reagent": 2, "total luciferase, z-score": -0.712, "total luciferase, % of control": 67.7, "outcome": "inactive"}
{"gene symbol": "LINC01704", "reagent": 3, "total luciferase, z-score": 1.01, "total luciferase, % of control": 102, "outcome": "inactive"}
